The source of these data is PMC8745505, “In Vitro Investigation of Binding Interactions between Albumin–Gliclazide Model and Typical Hypotensive Drugs” (International Journal of Molecular Sciences, 2021).

Chains of the proteins cited; added tags and fusions are not shown. Residues count along the entry.
UniProt P02769, 25-607: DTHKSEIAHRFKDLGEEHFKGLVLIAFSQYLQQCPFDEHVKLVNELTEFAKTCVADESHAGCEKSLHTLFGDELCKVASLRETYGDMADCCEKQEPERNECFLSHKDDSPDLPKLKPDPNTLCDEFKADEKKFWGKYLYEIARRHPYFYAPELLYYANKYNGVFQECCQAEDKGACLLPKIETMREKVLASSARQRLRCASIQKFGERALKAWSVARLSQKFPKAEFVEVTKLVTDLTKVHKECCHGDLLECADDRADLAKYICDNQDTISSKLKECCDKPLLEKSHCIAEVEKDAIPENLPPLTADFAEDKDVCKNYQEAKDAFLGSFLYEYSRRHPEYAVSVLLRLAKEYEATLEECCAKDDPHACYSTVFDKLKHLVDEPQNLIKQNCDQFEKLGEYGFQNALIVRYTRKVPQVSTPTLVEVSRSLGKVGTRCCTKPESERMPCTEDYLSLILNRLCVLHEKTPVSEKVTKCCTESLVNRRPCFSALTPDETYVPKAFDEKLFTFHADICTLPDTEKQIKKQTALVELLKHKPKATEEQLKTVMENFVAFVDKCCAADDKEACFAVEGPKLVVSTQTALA

Like-named read-outs stand apart in the source and are kept apart here.

The target of series [1] is T1, bovine serum albumin (BSA) (Bos taurus, UniProt P02769). The settings on record: BSA–GLICL complex in presence of DRUG; for ΔH / ΔS: 298 303 310 K. As for the experimental part: (§1) Bovine serum albumin (≥96%) was used to prepare 1.2 mM stock solution in PBS (pH 7.4). […] The concentration of BSA was controlled by the spectrophotometric method at 280 nm (with a molar coefficient of 43,824 cm^−1 M^−1). […] Simultaneously, a control sample containing BSA solution without any ligands was prepared. Measurements were performed in triplicate. All reagents were received from Sigma-Aldrich (St. Luis, MO, USA).
The thermodynamic analysis of the interaction between albumin and GLICL was performed on measurements at three temperatures (298, 303, 310 K) based on the van’t Hoff Equations (4)–(6):(4) ΔG=−R·T·lnKa (5) ΔG=ΔH−T·ΔS (6) lnKa=−ΔH/R·T+ΔS/R where ΔG is the free energy change, ΔH is the enthalpy change, ΔS is the entropy change, R is the universal gas constant, and T is the temperature.

The target of series [2] is T1, bovine serum albumin (BSA). Conditions: for Decreased α-Helix (%): vs BSA alone. As for the experimental part: as §1
The circular dichroism spectra data were recorded using JASCO J-1500 spectropolarimeter (Tokyo, Japan) in the range of 205–250 nm, with a scanning speed of 200 nm/min and with 0.1 step resolution using a quartz cuvette with a length path of 0.1 cm. The measurements were conducted for binary (BSA–DRUG) and ternary (BSA–DRUG–GLICL) models to provide information about the influence of ligand binding on the protein structure. The baseline was corrected using a phosphate buffer, pH = 7.4.
Mean residue ellipticity (MRE) was calculated according to the following Equation (7) and expressed in deg cm^2 dmol^−1:(7) MRE=Θobs/cp·n·l·10 where Θobs is the observed CD (in mdegree), Cp is the molar concentration of BSA, n is the number of amino acid residues (583 for BSA), and l is the path length of the cuvette (0.1 cm).
The α-helical contents of free and modified BSA were calculated from MRE values at 208 nm with Equation (8):(8) α-helix (%)=MRE208−4000/33,000−4000 ·100 where MRE208 is the observed MRE value at 208 nm, 4000 is the MRE of the β-form and random coil conformation cross at 208 nm, and 33,000 is the MRE value of the pure α-helix of BSA at 208 nm.

The target of series [3] is T1, bovine serum albumin (BSA). Conditions: for n, number of binding sites (bound gliclazide molecules) / Stern–Volmer quenching constant KSV: BSA–DRUG–GLICL; for Stern–Volmer quenching constant KSV: GLICL as quencher 0–14 µM, DRUG 8 µM (DRUG:BSA 4:1), λex 280 nm. The protocol: as §1
Fluorescence intensities of ternary models (BSA–DRUG–GLICL) were recorded using a Jasco FP-8200 spectrofluorometer with Peltier-thermo Cell Holder ETC-814 (Tokyo, Japan) at excitation wavelength of 280 nm, equipped with 1.0 cm quartz cells. The slit widths were set at 5 nm. The measurements were conducted at two different temperatures, 298 and 310 K. The fluorescence spectra of the drugs alone were also recorded. Each spectrum background was corrected by subtracting the spectrum of the phosphate buffer as a blank sample.
According to the assumption that fluorophores in a protein molecule may differ in accessibility, modified Stern–Volmer Equation (2) was used for the construction of plots and to calculate quenching constants:(2) F0/F0−F=1/fa·KSV·Q+1/fa where F0 and F are the fluorescence intensities in the absence and presence of gliclazide (GLICL), respectively; fa is the fraction of the initial fluorescence accessible to the quencher; Ksv is the Stern–Volmer quenching constant; and Q is the concentration of the quencher (GLICL).
The binding parameters (binding constant and number of binding sites) were obtained from double-log modified Stern–Volmer Equation (3):(3) logF0−F/F=logKa+n·logQ where F0 and F are the fluorescence intensities in the absence and presence of the quencher (gliclazide), respectively; Ka is the binding constant of the complex BSA–DRUG–GLICL, expressed as M^−1; n is the number of bound gliclazide molecules; and Q is the concentration of the quencher (GLICL).

For another series, the system named is plasma protein. The settings on record: cited from earlier work.
Where [4] appears, read: binary BSA–DRUG, molar ratio 1:4, 310 K.
Where [5] appears, read: ternary BSA–DRUG–GLICL, BSA:Ligand 1:4, BSA:GLICL 1:7, 310 K.

In the case of `CC(C)NCC(O)COc1ccc(CC(N)=O)cc1` (stereo not drawn) [ATN, atenolol], the ΔH in series [1] is 6.2 kcal/mol. The ΔS in series [1] worked out at 159.06 J/mol K. For the same molecule, the ΔG in series [1] (298 K) is -5.129 kcal/mol; in series [1] (303 K) it was -5.318 kcal/mol; in series [1] (310 K), -5.586 kcal/mol. The “Decreased α-Helix (%)” value in series [2] (setting [4]) worked out at 0.5%; in series [2] (setting [5]) it was 2.2%. For the same molecule, the “n, number of binding sites (bound gliclazide molecules)” value in series [3] (298 K) is listed as 0.96 ± 0.01; in series [3] (310 K), 0.98 ± 0.01. The “Stern–Volmer quenching constant KSV” value is listed as 1.32 ± 0.13 10^4 M^−1 in series [3] (298 K) and 0.90 ± 0.10 10^4 M^−1 in series [3] (310 K). Further, the “Mechanism of quenching of BSA fluorescence by GLICL in presence of DRUG” value in series [3] (from temperature dependence of KSV, 298 vs 310 K) is “static mechanism”.
`NS(=O)(=O)c1cc(C(=O)O)c(NCc2ccco2)cc1Cl` [FUR, furosemide]: the “Binding to serum albumin” value in the series with plasma protein is on record as “over 95%”. The ΔH in series [1] is 90.825 kcal/mol. For the same molecule, the ΔS in series [1] is recorded as 1310.00 J/mol K. The values for the ΔG in series [1] (298 K) and in series [1] (303 K) were -2.481 kcal/mol and -4.046 kcal/mol, respectively. Also, the “α-Helix Content (%)” value in series [2] (binary BSA–DRUG, molar ratio 1:4, 310 K (BSA alone 68.7)) is reported as 67.3%; in series [2] (ternary BSA–DRUG–GLICL, BSA:Ligand 1:4, BSA:GLICL 1:7, 310 K (BSA alone 68.7)), 64.8%. Besides, the “Decreased α-Helix (%)” value in series [2] (setting [4]) is listed as 1.3%; in series [2] (setting [5]), 3.9%.
